Results are given in words; binding and its absence hold for the method and conditions named. Binding calls can cover weak binding; strength is not graded here.
Tests used:
[1] = target: T1, Delta (Drosophila), expression construct pMTDl1 (Drosophila) (UniProt P10041); test: S2 cell aggregation with Delta cells
T1 sequence: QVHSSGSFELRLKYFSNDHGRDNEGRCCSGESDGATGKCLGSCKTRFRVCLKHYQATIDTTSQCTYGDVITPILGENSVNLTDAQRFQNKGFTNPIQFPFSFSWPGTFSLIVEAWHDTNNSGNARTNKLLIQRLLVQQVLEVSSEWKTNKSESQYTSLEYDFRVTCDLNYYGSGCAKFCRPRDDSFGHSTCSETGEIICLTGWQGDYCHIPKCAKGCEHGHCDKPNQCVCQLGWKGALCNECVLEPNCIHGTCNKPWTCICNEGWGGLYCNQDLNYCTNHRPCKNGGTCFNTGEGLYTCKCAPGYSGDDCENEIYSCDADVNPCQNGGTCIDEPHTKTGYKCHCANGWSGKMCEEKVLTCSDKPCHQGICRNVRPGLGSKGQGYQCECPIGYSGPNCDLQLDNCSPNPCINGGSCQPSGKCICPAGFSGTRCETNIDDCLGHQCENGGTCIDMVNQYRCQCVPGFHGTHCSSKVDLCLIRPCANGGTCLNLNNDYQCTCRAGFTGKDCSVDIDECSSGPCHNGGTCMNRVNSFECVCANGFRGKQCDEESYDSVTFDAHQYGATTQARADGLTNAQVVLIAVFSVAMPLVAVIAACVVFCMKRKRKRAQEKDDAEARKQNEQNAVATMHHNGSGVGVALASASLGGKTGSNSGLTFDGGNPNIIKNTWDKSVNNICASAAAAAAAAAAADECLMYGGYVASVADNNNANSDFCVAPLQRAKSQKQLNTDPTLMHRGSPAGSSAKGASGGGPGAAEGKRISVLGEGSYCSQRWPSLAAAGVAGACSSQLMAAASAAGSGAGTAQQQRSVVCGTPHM

[2] = target: T1, Delta (Drosophila), expression construct pMTDl1 (Drosophila); test: S2 cell aggregation with Delta cells, with or without Ca2+

Substance: Notch deletion construct #32 ΔECN+EGF(11-12) (receptor)
- binding [1]: binds
- binding [2]: binds

From patent US20050112121A1 (YALE UNIVERSITY, published 2005)
